{"source": "patent US20060047171A1", "about": "“Catalytic hydrogenation of nitriles to produce capsaicinoid derivatives and amine compounds, and methods for purifying and obtaining the polymorphs thereof” (priority 2003, published 2006)", "key": {"[1]": {"test_system": "adjuvant induced hyperalgesia", "settings": "rats, cited from earlier work"}, "[2]": {"test_system": "response latency on heated plate", "settings": "DA-5018 p. o. versus morphine s. c.; mice; results reported in U.S. Pat. No. 5,242,944; cited from earlier work"}, "[3]": {"experiment": "Solubility curve / metastable zone width in methanol/water (1:1.25, v/v)", "assay_type": "physicochemical", "settings": "within the studied concentration range", "protocol": "A standard procedure to determine the width of the metastable zone was used to determine the solubility curves of DA-5018 in methanol/water (1:1.25, v/v). In this procedure, DA-5018 (2.0 g) was suspended in 15 mL (7.5 vol) of methanol/water (1:1.25, v/v) and heated until all solids were dissolved (approximately 55° C.). The resulting solution was then very slowly cooled at a fixed rate of 0.2° C./min and the nucleation temperature recorded. The mixture was slowly reheated and the temperature of complete dissolution recorded. The solution was then iteratively diluted with a known volume of solvent and the nucleation as well as the dissolution points recorded at gradually lower concentrations to provide additional data points on the saturation curve as well as on the solubility curve. By definition, for a given concentration, the distance between the solubility curve and the saturation curve provides the metastable zone width (MSZW), in which crystal growth can be achieved upon careful seeding and controlled cooling, antisolvent addition, evaporation or pH adjustment, depending on the chosen crystallization conditions. Such a protocol is often crucial in maximizing crystal growth and curbing spontaneous, secondary nucleation that leads to uncontrolled crystallization."}, "[4]": {"test_system": "yeast induced hyperalgesia", "experiment": "Randall-Selitto test", "assay_type": "in vivo, rat", "settings": "5 mg/kg perorally, two hours after yeast injection and one hour before the test", "protocol": "Randall-Selitto Test was carried out by following the method described in Arch. Int.\nMale albino rats (120-170 g) of the Charles River Sprague-Dawley strain are used. Inflammation is produced by the injection of 0.1 mL of a 20% suspension of Brewer's yeast into the plantar surface of the rat's hind foot.\nThe pain threshold is measured as the pressure in mm Hg required to induce the desired response (a sharp audible squeak and/or struggle) when the pressure is applied to the foot. Air pressure from an air line is admitted through a needle valve to a 20 mL glass syringe and to a pressure gauge connected by a T-tube. The syringe is mounted with the plunger downward to which is connected a short bullet-shaped Teflon peg. The pressure is applied to the foot of the rat at the rate of 10 mmHg per second. Drug is given 2 hours after the yeast injection. Two hours after the drug administration, threshold response is determined.\nThe analgesic activity was determined in terms of the percentage of inhibition of response: Inhibition (%)=(TTG−TCG)/TCG×100, where TTG is the Threshold of Treated Group, and TCG is the Threshold of the Control Group."}, "[5]": {"test_system": "tail flick response to radiant heat", "settings": "mice, cited from earlier work"}, "[6]": {"test_system": "carrageenan edema of the paw", "settings": "test drug s. c. twenty minutes before carrageenan; edema volume 3 hours later; rats; cited from earlier work"}}, "note": "Where two headings read alike, the source gives them in different places. For at least one compound, name, drawing or mass did not settle the structure."}
{"compound": "COc1cc(CC(=O)NCCCc2ccc(C)c(C)c2)ccc1OCCN", "note": "[DA-5018, 2-[4-(2-aminoethoxy)-3-methoxyphenyl]-N-[3-(3,4-dimethylphenyl)propyl]acetamide]", "values": [{"measurement": "Analgesic activity (%)", "setting": "[1]; 5 mg/Kg, DA-5018 perorally two hours before tail-pinch testing", "result": 45.9, "unit": "%"}, {"measurement": "Analgesic activity (%)", "setting": "[1]; 10 mg/Kg, perorally two hours before tail-pinch testing", "result": 66.7, "unit": "%"}, {"measurement": "inhibition of adjuvant induced hyperalgesia (in words)", "setting": "[1]; perorally two hours before tail-pinch testing", "result": "caused a dose related inhibition of adjuvant induced hyperalgesia"}, {"measurement": "effectiveness in the hot plate test (in words)", "setting": "[2]", "result": "as effective as morphine"}, {"measurement": "metastable zone width (MSZW), rough estimate", "setting": "[3]", "result": "10-13 °C"}, {"measurement": "inhibition of yeast induced hyperalgesia (in words)", "setting": "[4]", "result": "caused an inhibition of yeast induced hyperalgesia"}, {"measurement": "Inhibition (%)", "setting": "[5]; 1.25 mg/Kg p. o.", "result": 10, "unit": "%"}, {"measurement": "Inhibition (%)", "setting": "[5]; 2.5 mg/Kg p. o.", "result": 60, "unit": "%"}, {"measurement": "Inhibition (%)", "setting": "[5]; 5.0 mg/Kg p. o.", "result": 80, "unit": "%"}, {"measurement": "Inhibition (%)", "setting": "[5]; 7.5 mg/Kg p. o.", "result": 90, "unit": "%"}, {"measurement": "activity in the tail flick test (in words)", "setting": "[5]; results reported in U.S. Pat. No. 5,242,944", "result": "more effective than morphine"}, {"measurement": "inhibitory effects on carrageenan edema (in words)", "setting": "[6]", "result": "significantly superior to that of Aspirin or Naproxen"}]}
